Reference: the supplement of paper PMC10849652
This is one part of the list.

Chains of the proteins cited; added tags and fusions are not shown. Lines headed by an entry give the natural chain unless they say otherwise; changes in a name come on top.
UniProt Q96MH6: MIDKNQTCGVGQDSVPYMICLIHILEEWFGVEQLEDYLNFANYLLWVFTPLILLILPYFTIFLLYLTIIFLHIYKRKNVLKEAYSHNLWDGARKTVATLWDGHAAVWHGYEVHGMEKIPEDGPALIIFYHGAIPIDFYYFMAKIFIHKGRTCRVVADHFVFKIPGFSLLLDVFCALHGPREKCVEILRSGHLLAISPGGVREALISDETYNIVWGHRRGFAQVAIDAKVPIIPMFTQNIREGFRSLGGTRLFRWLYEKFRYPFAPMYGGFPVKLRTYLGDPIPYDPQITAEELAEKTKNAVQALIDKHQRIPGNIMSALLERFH
UniProt Q12893: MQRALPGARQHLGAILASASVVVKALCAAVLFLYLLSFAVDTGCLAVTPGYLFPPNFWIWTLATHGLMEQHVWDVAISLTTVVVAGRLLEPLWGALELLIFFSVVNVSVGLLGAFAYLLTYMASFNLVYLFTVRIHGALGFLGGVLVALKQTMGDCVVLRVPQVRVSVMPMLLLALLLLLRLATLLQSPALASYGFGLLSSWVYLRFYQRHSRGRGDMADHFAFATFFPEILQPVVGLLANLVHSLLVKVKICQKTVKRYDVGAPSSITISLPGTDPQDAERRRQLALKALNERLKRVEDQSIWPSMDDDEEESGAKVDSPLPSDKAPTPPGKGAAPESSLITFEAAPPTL
UniProt Q9BVT8: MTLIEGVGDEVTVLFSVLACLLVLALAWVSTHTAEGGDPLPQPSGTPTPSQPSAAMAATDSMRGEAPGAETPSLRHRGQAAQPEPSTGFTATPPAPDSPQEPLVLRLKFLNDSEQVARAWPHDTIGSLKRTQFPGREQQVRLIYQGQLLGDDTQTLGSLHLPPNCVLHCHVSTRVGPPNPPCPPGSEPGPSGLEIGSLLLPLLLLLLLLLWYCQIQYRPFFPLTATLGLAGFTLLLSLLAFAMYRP
UniProt A0PK00: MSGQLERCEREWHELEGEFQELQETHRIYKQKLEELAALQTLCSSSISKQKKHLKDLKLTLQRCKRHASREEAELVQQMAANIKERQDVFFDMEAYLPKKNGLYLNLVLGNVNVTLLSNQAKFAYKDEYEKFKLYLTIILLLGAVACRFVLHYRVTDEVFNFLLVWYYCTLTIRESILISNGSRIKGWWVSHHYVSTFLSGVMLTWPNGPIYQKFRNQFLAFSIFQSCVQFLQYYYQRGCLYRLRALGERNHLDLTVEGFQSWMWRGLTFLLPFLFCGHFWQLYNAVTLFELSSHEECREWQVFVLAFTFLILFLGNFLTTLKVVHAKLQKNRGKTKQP
UniProt Q9Y3Q3: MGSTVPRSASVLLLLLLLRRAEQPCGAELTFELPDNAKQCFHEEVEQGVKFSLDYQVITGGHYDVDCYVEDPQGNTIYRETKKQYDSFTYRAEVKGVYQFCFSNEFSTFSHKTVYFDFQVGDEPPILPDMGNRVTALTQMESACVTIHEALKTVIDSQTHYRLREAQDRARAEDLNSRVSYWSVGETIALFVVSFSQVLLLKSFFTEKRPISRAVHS
UniProt Q04727: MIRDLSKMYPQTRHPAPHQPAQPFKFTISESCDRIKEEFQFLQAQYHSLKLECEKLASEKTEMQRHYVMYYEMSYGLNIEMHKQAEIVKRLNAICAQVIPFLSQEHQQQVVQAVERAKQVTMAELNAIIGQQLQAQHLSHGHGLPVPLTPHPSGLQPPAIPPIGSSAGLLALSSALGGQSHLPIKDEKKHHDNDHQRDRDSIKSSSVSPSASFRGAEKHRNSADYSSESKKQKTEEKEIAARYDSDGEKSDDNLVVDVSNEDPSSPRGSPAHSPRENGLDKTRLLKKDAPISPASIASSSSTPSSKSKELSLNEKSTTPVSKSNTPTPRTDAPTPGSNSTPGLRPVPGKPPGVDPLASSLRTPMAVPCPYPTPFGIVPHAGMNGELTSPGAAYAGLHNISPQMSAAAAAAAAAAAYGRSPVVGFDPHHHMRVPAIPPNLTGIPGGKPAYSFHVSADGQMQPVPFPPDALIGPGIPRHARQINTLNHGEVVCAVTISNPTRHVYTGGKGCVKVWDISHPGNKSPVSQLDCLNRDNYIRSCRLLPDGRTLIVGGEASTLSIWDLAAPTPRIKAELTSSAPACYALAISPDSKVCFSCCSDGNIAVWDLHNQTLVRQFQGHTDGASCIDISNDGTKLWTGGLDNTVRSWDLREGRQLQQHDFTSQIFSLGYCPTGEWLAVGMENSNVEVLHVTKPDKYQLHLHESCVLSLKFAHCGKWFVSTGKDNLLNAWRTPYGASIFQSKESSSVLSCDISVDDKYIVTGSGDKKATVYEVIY
UniProt Q9BZW5, whole entry, looked up: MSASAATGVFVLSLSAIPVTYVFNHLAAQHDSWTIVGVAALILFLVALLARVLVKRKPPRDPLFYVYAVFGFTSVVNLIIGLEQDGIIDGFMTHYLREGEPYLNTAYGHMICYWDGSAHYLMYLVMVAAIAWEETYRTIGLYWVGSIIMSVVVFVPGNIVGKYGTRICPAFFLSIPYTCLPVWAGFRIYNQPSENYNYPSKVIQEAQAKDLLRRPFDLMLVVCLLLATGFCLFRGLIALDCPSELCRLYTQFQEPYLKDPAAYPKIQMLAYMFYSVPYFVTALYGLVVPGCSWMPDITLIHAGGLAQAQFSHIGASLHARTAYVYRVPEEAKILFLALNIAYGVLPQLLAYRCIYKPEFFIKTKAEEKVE
UniProt Q5SWH9: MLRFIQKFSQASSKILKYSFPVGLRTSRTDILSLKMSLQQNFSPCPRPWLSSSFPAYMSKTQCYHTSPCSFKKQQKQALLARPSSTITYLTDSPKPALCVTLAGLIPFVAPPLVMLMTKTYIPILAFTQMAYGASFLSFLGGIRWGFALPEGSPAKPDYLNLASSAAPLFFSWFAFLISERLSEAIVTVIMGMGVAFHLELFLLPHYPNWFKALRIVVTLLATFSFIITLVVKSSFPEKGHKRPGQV
UniProt P63313: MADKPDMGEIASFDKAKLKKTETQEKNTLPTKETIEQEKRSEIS
UniProt O15321, whole entry, looked up: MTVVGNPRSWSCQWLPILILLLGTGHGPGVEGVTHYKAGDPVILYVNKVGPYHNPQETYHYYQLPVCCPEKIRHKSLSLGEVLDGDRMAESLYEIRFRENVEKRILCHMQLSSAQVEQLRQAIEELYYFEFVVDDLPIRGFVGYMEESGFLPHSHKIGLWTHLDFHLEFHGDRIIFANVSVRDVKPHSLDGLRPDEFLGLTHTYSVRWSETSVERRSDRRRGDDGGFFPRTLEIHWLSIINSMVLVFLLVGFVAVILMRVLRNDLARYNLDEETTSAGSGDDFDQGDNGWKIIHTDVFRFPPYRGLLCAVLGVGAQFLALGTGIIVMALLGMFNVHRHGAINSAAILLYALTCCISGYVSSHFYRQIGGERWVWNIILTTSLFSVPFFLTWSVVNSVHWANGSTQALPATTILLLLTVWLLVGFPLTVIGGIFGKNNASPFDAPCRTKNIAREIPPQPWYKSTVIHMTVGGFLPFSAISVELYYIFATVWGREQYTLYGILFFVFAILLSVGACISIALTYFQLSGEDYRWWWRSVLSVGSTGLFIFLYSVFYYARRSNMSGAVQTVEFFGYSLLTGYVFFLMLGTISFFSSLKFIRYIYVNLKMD
UniProt Q8TDI8: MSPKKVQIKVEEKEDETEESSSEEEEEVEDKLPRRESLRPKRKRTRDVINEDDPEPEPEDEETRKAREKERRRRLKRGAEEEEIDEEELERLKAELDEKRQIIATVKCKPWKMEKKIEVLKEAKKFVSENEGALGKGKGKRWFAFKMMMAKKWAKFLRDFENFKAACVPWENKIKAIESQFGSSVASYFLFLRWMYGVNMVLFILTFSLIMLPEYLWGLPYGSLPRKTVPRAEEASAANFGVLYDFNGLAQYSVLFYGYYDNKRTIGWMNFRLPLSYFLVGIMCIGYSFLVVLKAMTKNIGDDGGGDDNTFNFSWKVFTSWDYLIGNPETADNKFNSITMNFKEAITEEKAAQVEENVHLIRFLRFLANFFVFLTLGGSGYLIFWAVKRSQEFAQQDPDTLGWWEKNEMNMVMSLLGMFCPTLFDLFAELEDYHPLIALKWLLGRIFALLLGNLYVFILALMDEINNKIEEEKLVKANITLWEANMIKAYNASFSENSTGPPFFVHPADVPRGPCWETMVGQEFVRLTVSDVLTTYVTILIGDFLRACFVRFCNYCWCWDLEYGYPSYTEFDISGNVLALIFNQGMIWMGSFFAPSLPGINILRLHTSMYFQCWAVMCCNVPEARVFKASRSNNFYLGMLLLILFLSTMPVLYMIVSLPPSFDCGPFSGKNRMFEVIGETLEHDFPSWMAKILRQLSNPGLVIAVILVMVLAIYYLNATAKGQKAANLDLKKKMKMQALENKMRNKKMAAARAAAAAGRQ
UniProt Q9NV96: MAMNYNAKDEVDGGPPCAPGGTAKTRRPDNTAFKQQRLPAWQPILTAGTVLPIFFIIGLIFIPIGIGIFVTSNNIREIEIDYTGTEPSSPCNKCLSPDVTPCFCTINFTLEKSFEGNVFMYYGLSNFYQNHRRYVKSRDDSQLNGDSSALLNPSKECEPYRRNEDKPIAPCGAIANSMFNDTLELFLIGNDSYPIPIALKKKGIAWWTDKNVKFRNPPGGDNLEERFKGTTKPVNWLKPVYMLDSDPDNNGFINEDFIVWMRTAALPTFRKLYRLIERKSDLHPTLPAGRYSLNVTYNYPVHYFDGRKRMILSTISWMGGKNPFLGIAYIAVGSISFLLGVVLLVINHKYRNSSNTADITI
UniProt Q71RG4: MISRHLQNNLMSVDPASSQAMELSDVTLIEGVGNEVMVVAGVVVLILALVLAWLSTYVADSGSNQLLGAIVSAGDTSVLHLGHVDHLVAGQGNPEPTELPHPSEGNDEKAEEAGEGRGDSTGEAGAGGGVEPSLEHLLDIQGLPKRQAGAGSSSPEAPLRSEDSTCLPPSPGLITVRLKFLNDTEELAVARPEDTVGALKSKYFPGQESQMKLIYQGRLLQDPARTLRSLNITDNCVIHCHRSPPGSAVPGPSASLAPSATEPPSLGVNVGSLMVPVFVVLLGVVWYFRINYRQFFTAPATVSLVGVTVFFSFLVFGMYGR
UniProt Q9P0T7: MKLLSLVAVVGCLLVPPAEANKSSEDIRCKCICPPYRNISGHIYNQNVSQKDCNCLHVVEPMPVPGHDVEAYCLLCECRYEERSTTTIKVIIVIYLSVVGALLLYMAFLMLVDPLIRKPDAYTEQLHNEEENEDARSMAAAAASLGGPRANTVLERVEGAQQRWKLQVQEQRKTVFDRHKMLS
UniProt Q7Z403: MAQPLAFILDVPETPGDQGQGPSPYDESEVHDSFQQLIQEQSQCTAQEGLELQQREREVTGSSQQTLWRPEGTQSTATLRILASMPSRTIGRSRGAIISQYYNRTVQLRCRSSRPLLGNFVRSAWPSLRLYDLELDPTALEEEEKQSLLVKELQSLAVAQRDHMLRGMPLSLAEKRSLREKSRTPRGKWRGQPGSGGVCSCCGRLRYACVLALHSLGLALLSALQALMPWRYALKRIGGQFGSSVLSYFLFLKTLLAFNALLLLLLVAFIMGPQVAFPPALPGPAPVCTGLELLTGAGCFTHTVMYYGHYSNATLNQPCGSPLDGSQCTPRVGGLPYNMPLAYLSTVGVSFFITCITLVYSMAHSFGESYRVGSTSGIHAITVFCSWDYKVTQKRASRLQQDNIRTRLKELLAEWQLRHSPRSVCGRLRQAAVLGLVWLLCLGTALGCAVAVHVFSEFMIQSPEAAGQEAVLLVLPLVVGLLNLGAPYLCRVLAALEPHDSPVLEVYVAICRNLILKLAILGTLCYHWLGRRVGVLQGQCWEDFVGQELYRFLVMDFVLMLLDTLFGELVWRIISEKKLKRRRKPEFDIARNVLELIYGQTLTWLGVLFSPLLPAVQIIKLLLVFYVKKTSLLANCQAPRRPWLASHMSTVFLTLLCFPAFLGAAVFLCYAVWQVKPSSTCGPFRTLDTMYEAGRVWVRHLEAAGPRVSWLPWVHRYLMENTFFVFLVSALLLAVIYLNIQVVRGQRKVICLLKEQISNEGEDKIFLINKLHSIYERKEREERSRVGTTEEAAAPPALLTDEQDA
UniProt Q9NS93: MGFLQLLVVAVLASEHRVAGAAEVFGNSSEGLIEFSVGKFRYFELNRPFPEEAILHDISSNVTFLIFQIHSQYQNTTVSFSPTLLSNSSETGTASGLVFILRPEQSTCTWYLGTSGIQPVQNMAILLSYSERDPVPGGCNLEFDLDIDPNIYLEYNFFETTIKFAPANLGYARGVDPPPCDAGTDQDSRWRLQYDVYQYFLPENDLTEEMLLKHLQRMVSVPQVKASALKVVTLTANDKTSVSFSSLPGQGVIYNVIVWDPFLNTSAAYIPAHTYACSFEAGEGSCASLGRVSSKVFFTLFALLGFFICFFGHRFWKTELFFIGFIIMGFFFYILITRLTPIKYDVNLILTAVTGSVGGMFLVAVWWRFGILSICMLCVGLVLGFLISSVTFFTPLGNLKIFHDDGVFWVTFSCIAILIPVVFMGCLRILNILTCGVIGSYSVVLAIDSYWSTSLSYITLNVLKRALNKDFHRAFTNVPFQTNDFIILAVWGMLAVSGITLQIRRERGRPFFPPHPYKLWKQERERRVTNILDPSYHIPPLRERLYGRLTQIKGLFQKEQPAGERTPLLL

Key:
Assay in all cases: log2 fold change, soluble protein after heating vs DMSO (PISA); higher = thermal stabilisation; K562 cells, 10 uM, 30 min; active = over 0.2 and 3.5 SD of the protein, either way, in both replicates (recomputed)
erlotinib = compound: C#Cc1cccc(Nc2ncnc3cc(OCCOC)c(OCCOC)cc23)c1 [erlotinib]
Procedure, shortened: (§1)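 Aliquots of K562 cells (2×10^6 cells/mL) treated with 10 μM compound for 30 min were heated for 3 min over 48°C-58°C. After pooling and extraction in PBS with 0.5% NP-40 at 4°C, soluble protein from a 21,000xg, 90 min spin was quantified by TMTpro 16plex LC-MS/MS with channel sums equalised. Thermal stability is expressed against control samples, from duplicates, as a log2 fold change.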

[1] = compound: C/C(=N\NC(=O)C1=CC(=CC=C1)S(=O)(=O)N2CCOCC2)/C3=C(C=CC(=C3)Cl)O
Procedure, shortened: as §1

[2] = compound: C1=CC(=C(C=C1Cl)C2=NC3=NC=CN=C3C(=N2)NC4=CC=NC=C4)F
Procedure, shortened: as §1

[3] = compound: C1=CC(=CC=C1C2=NC3=C(N2)C=C(C=C3)C(=O)N)OC4=CC=C(C=C4)Cl
Procedure, shortened: as §1

[4] = compound: C1=CC2=C(C=CC(=C2)/C=C\3/C(=O)NC(=NCC4=CC=CS4)S3)N=C1
Procedure, shortened: as §1

[5] = compound: C1=CC2=NC=CN=C2C=C1/C=C/3\C(=O)NC(=O)S3
Procedure, shortened: as §1

[6] = compound: C1=CC=C(C=C1)C2=NC(=C(N2)C3=CC=NC=C3)C4=CC(=C(C=C4)Cl)O
Procedure, shortened: as §1

[7] = compound: C1=CC=C2C(=C1)C3=NNC4=CC=CC(=C43)C2=O
Procedure, shortened: as §1

[8] = compound: C1CCN(C1)C(=O)NC2=CC=CC(=C2)NC3=NC=C(C(=N3)NCCC4=CN=CN4)Br
Procedure, shortened: as §1

[9] = compound: C1CN(CCC1(CC2=CC=C(C=C2)Cl)N)C3=NC=NC4=C3C=CN4
Procedure, shortened: as §1

Measured: log2 fold change

TMEM68 (UniProt Q96MH6)
inactive: erlotinib 0.025 | [1] 0.035 | [2] 0.06 | [3] -0.02 | [4] 0.002 | [5] 0.041 | [6] -0.004 | [7] -0.015 | [8] -0.012 | [9] 0.071

TMEM115 (UniProt Q12893)
inactive: erlotinib 0.035 | [1] 0.044 | [2] 0.059 | [3] 0.025 | [4] 0.026 | [5] 0.019 | [6] -0.027 | [7] -0.051 | [8] 0.006 | [9] 0.089

TMUB1 (UniProt Q9BVT8)
inactive: erlotinib -0.079 | [1] -0.002 | [2] -0.162 | [3] 0.057 | [4] -0.07 | [5] 0.096 | [6] -0.059 | [7] 0.059 | [8] -0.025 | [9] 0.055

TMEM120B (UniProt A0PK00)
inactive: erlotinib 0.052 | [1] -0.026 | [3] 0.026 | [4] -0.046 | [6] 0.047 | [7] 0.061 | [8] -0.316 | [9] 0.116

TMED3 (UniProt Q9Y3Q3)
inactive: erlotinib -0.08 | [1] -0.09 | [2] 0.089 | [3] 0.077 | [4] 0.115 | [5] -0.049 | [7] 0.005 | [8] -0.02 | [9] 0.007

TLE4 isoform 3 (UniProt Q04727)
inactive: erlotinib -0.034 | [1] 0.06 | [2] 0.018 | [3] 0.022 | [4] 0.008 | [5] 0.016 | [6] 0.009 | [7] -0.034 | [8] 0.027 | [9] 0.02

TM6SF1 (UniProt Q9BZW5)
inactive: erlotinib -0.02 | [1] 0.04 | [2] 0.087 | [3] -0.01 | [4] -0.121 | [6] -0.013 | [7] -0.149 | [8] 0.133 | [9] 0.048

Looked up one by one from above (2):
TMEM68 (UniProt Q96MH6)
inactive: erlotinib 0.025 | [1] 0.035 | [2] 0.06 | [3] -0.02 | [4] 0.002 | [5] 0.041 | [6] -0.004 | [7] -0.015 | [8] -0.012 | [9] 0.071

TMED3 (UniProt Q9Y3Q3)
inactive: erlotinib -0.08 | [1] -0.09 | [2] 0.089 | [3] 0.077 | [4] 0.115 | [5] -0.049 | [7] 0.005 | [8] -0.02 | [9] 0.007

Later entries:

TMEM69 (UniProt Q5SWH9)
inactive: erlotinib -0.11 | [1] 0.078 | [3] -0.009 | [4] 0.047 | [5] 0.02 | [6] 0.076 | [7] 0.169 | [8] 0.087 | [9] 0.081

TMEM192 (UniProt Q8IY95)
inactive: erlotinib 0.044 | [1] -0.017 | [2] 0.011 | [3] -0.008 | [4] -0.011 | [5] 0.067 | [6] 0.011 | [7] -0.017 | [8] 0.039 | [9] 0.038

TMEM104 (UniProt Q8NE00)
inactive: erlotinib 0.08 | [1] -0.026 | [2] 0.037 | [3] 0.026 | [4] 0.039 | [6] 0.013 | [7] -0.015

TMSB10 (UniProt P63313)
inactive: erlotinib -0.128 | [1] -0.1 | [2] 0.255 | [3] 0.049 | [4] 0.093 | [5] 0.126 | [6] 0.06 | [7] -0.052 | [8] -0.019 | [9] -0.111

TMEM123 (UniProt Q8N131)
inactive: erlotinib 0.004 | [1] 0.092 | [2] 0.033 | [3] 0.04 | [4] 0.104 | [5] 0.005 | [7] -0.12 | [8] 0.042 | [9] 0.042

TM9SF2 (UniProt Q99805)
inactive: erlotinib 0.012 | [1] 0.025 | [2] 0.037 | [3] -0.006 | [4] 0.027 | [5] -0.021 | [6] 0.04 | [7] 0.009 | [8] -0.04 | [9] 0.063

TM9SF1 (UniProt O15321)
inactive: erlotinib -0.03 | [1] 0.011 | [2] -0.015 | [3] 0.01 | [4] 0.033 | [5] -0.257 | [6] -0.026 | [7] 0.029 | [8] -0.024 | [9] 0.091

TMED8 (UniProt Q6PL24)
inactive: erlotinib -0.006 | [1] -0.047 | [3] 0.036 | [4] 0.032 | [5] 0.053 | [6] 0.181 | [7] 0.094 | [8] -0.039 | [9] 0.002

TMEM259 (UniProt Q4ZIN3)
inactive: erlotinib 0.019 | [1] -0.027 | [2] -0.015 | [3] 0.038 | [4] 0.052 | [5] 0.067 | [6] -0.039 | [7] -0.102 | [8] 0.012 | [9] 0.061

TMEM101 (UniProt Q96IK0)
inactive: erlotinib -0.046 | [1] 0.047 | [3] 0.027 | [4] 0.045 | [5] 0.018 | [6] -0.045 | [7] -0.012 | [8] 0.014 | [9] 0.085

TMC1 (UniProt Q8TDI8)
inactive: erlotinib 0.016 | [1] -0.107 | [2] 0.007 | [3] -0.14 | [4] 0.138 | [5] 0.115 | [7] -0.058 | [8] 0.067 | [9] 0.031

TMEM63A (UniProt O94886)
inactive: erlotinib -0.028 | [1] 0.026 | [2] 0.007 | [3] 0.019 | [4] -0.033 | [5] -0.011 | [7] 0.045 | [8] 0.01 | [9] 0.059

TMEM14C (UniProt Q9P0S9)
inactive: erlotinib -0.04 | [1] -0.052 | [3] 0.07 | [4] 0.016 | [5] 0.013 | [6] 0.123 | [7] 0.052 | [8] -0.055 | [9] 0.024

TMEM30A (UniProt Q9NV96)
inactive: erlotinib -0.007 | [1] 0.055 | [2] 0.016 | [3] -0.001 | [4] 0.067 | [5] 0.056 | [6] 0.002 | [7] -0.021 | [8] 0.006 | [9] 0.026

TMUB2 (UniProt Q71RG4)
inactive: erlotinib 0.052 | [1] -0.041 | [2] 0.063 | [3] 0.017 | [4] 0.007 | [5] -0.016 | [6] -0.073 | [7] -0.065 | [8] 0.119 | [9] 0.052

TMEM161A (UniProt Q9NX61)
inactive: erlotinib 0.017 | [1] 0.088 | [2] -0.019 | [3] -0.018 | [4] 0.021 | [5] 0.001 | [6] 0.029 | [7] -0.006 | [8] -0.067 | [9] 0.054

TMEM9 (UniProt Q9P0T7)
inactive: erlotinib 0.014 | [1] 0.008 | [2] 0.254 | [3] -0.021 | [4] -0.034 | [5] -0.117 | [6] 0.037 | [7] -0.004 | [8] -0.053 | [9] -0.025

TMC6 (UniProt Q7Z403)
inactive: erlotinib 0.033 | [1] -0.016 | [3] 0.025 | [4] 0.071 | [6] 0.037 | [7] -0.088 | [8] -0.009 | [9] -0.054

TMEM219 (UniProt Q86XT9)
inactive: erlotinib -0.029 | [1] 0.035 | [2] 0.059 | [3] 0.073 | [4] 0.001 | [5] 0.015 | [7] 0.006 | [8] 0.042 | [9] 0.016

TMF1 (UniProt P82094)
inactive: erlotinib -0.032 | [1] -0.021 | [2] 0.017 | [3] 0.013 | [4] 0.014 | [5] 0.059 | [6] -0.047 | [7] -0.061 | [8] -0.008 | [9] -0.012

TM7SF3 (UniProt Q9NS93)
inactive: erlotinib -0.073 | [1] 0.053 | [3] 0.03 | [4] -0.101 | [5] 0.034 | [6] 0.02 | [7] 0.061 | [8] 0.001 | [9] 0.123
